Data from patent US20020082273A1, “Agents for use in the treatment of alzheimer's disease” (priority 1998, published 2002).
For at least one compound, name, drawing or mass did not settle the structure.

Key:
[1] = Metal reduction assay, Cu^2+ to Cu^+; assay type: biochemical; conditions: 10 μM Cu^2+, PBS pH 7.4, 1 hr 37° C.
Experimental: Aβ (10 μM in PBS, pH 7.4 or 6.8, as shown) was incubated for 30 minutes (37° C.) in the presence of Cu^2+10 μM ±Zn^2+ 10 μM). […] levels (n=3, ±SD) were assayed against a standard curve.
Polypeptides (10 μM) or Vitamin C (100 μM), metal ions (10 μM, Fe(NO3)3 or Cu(NO3)2), and reduced metal ion indicators, bathophenanthrolinedisulfonic acid (BP, for Fe^2+, Sigma, 200 μM) or bathocuproinedisulfonic acid (BC, for Cu^+, Sigma, 200 μM), were coincubated in phosphate buffered saline (PBS), pH 7.4, for 1 hr at 37° C. The metal ion solutions were prepared by direct dilution in the buffer from their aqueous stocks purchased from National Institute of Standards and Technology (NIST). […] In control samples, both metal ion and indicator were present to determine the background buffer signal. As a further control, both metal ion and peptide were present in the absence of indicator to estimate the contribution of light scattering due to turbidity to the absorbance reading at these wavelengths. The net absorbances (ΔA) at 536 nm or 483 nm were obtained by deducting the absorbances from these controls from the absorbances generated by the peptide and metal in the presence of the respective indicator.

[2] = Metal reduction assay, Fe^3+ to Fe^2+; assay type: biochemical; conditions: 10 μM Fe^3+, PBS pH 7.4, 1 hr 37° C.
Experimental: The metal reduction assay was performed using a 96-well microtiter plate (Costar) based upon a modification of established protocols (Landers, J. W., et al., Amer. Clin. Path. 29:590 (1958); Landers, J. W., et al., Clinica Chimica Acta 3:329 (1958)). Polypeptides (10 μM) or Vitamin C (100 μM), metal ions (10 μM, Fe(NO3)3 or Cu(NO3)2), and reduced metal ion indicators, bathophenanthrolinedisulfonic acid (BP, for Fe^2+, Sigma, 200 μM) or bathocuproinedisulfonic acid (BC, for Cu^+, Sigma, 200 μM), were coincubated in phosphate buffered saline (PBS), pH 7.4, for 1 hr at 37° C. The metal ion solutions were prepared by direct dilution in the buffer from their aqueous stocks purchased from National Institute of Standards and Technology (NIST). Absorbances were then measured at 536 mn (Fe^2+-BP complex) and 483 nm (Cu^+-BC complex), respectively, using a 96-well plate reader (SPECTRAmax 250, Molecular Devices, CA). […] As a further control, both metal ion and peptide were present in the absence of indicator to estimate the contribution of light scattering due to turbidity to the absorbance reading at these wavelengths. The net absorbances (ΔA) at 536 nm or 483 nm were obtained by deducting the absorbances from these controls from the absorbances generated by the peptide and metal in the presence of the respective indicator. […]

Aβ = test: Effect of agents on Cu^2+-induced SDS-resistant Aβ polymerization; assay type: biochemical, human
Experimental: Cu^2+-induced SDS-resistant oligomerization of Aβ: Aβ (2.5 μM), 150 mM NaCl, 20 mM hepes (pH 6.6, 7.4, 9) with or without ZnCl2 or CuCl2. Following incubation (37° C.), aliquots of each reaction (2 ng peptide) were collected at 0 d, 1 d, 3 d and 5 d and western blotted using anti-Aβ monoclonal antibody 8E10 (FIG. 9). Migration of the molecular size markers are indicated (kDa). […] Cu^2+ (2-30 μM) induced SDS-resistant polymerization of peptide. […] It should be noted that other means of visualizing and/or determining the presence or absence of polymerization other than western blot analysis may be used. Such other means include but are not limited to density sedimentation by centrifugation of the samples.
It is possible that the decreased polymerization may be due to chelation of Cu^2+ by BC, however given the low binding affinity of BC for Cu^2+ compared with Aβ, it seems likely that the chelation of Cu^+ by BC prevents it from inducing SDS-resistant Ad polymerization. Therefore, Aβ may undergo a hydroxyl radical modification that promotes its assembly into SDS-resistant polymers.

Compound: O=C1O[C@H]([C@@H](O)CO)C(O)=C1O [Vitamin C]
- reduction of available Cu^2+ [1]: reduced Cu^2+efficiently
- reduction of available Fe^3+ [2]: 15%
- effect on Cu^2+-induced SDS-resistant Aβ polymerization (Aβ): dramatically accelerates
